Measured values taken from PubChem BioAssay AID504834 (National Center for Advancing Translational Sciences (NCATS), 2011).
Screen size: about 320,000 compounds; about 22,000 (6.9%) were called active. The inconclusive results got no clear call from the source; some entries with a clear call stand among them for comparison. Calls come from the whole dose curve; as a rule, active = well fitted inhibition curve with a large enough effect; inconclusive = small, poorly fitted or top-dose-only effect, or another doubt; inactive = no such curve, though single readings can be large or run the other way. Potencies of inconclusive entries are doubtful fits and often do not repeat.

test: Primary qHTS for delayed death inhibitors of the malarial parasite plastid, 96 hour incubation; settings: P. falciparum luciferase reporter growth; series mostly up to 28.7 µM
How it was run: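 Luminescence readout: decreased luciferase signal marks inhibited growth of reporter-expressing P. falciparum in infected red cells (2% hematocrit, 0.05% parasitemia final), exposed to compound two generations (96 h, 37 C, 5% CO2).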
Potency is the fitted concentration of half-maximal effect.

Row | Structure (SMILES) | Potency
1 | CCn1cnc2c1c(=O)n(Cc1cccc([N+](=O)[O-])c1)c(=O)n2Cc1ccccc1 | inconclusive: 1.31 µM [inhibitor, full curve]
2 | COc1ccc2nc(SCC(=O)NC3CCCc4ccccc43)[nH]c2c1 (centres undefined) | inconclusive: 18.5 µM [inhibitor, single point]
3 | Cc1cccc(NC(=O)CSc2nnc(CNC(=O)c3ccc(S(=O)(=O)N(C)C)cc3)n2-c2cccc(C)c2)c1 | active: 7.38 µM
4 | CCN1CCCC1CNS(=O)(=O)c1cc(Br)cc2c1N(C(=O)C1CC1)CC2 (centres undefined) | inactive
5 | O=C1c2cccc3c([N+](=O)[O-])ccc(c23)C(=O)N1O | inactive
6 | COc1ccc(S(=O)(=O)N2CCOCC2)cc1NC(=O)COc1ccccc1 | inactive
7 | Cc1cccc2cc(CN(Cc3cccnc3)C(=O)c3ccccc3F)c(Cl)nc12 | inconclusive: 18.5 µM [inhibitor, single point]
8 | O=C(NCc1ccc(F)cc1Cl)C1CCN(S(=O)(=O)N2CCCCC2)CC1 | active: 3.29 µM
9 | COC(=O)CC1C(=O)NCCN1C(=S)Nc1cc(C)cc(C)c1 (centres undefined) | inconclusive: 4.65 µM [inhibitor, partial curve, poor fit]
10 | CCc1ccc(N2C(=O)CC(NNc3nc4ccccc4s3)C2=O)cc1 (centres undefined) | inconclusive: 14.7 µM [inhibitor, single point]
11 | O=C(N/N=C/c1ccccc1Cl)c1ccc(F)cc1 | inactive
12 | O=C(CN1C(=O)c2cccc3cccc1c23)Nc1ccc2c(c1)OCO2 | inconclusive: 10.4 µM [inhibitor, single point]
13 | COc1cc(OC)cc(C(=O)NC(=S)Nc2ccc3c4c(cccc24)CC3)c1 | inactive
14 | NC(=O)c1c(NC(=O)CN2CCCC2)sc2c1CCCC2 | active: 11.7 µM
15 | O=C(COC(=O)COc1ccc(Cl)cc1)NC1CCCCCC1 | inactive
16 | CC(C)Cc1nc(SCC(=O)N2CCCC2)c2c(=O)n(C)c(=O)n(C)c2n1 | inactive
17 | O=C(CSc1ccc(-c2ccc(Br)cc2)nn1)NC1CCCC1 | inactive
18 | CC(C)n1c(N2CCN(C(=O)c3cccs3)CC2)nc2ccccc21 | inactive
19 | CC(C)COC(=O)C(C#N)c1nc2ccccc2nc1N1CCN(Cc2ccccc2)CC1 (centres undefined) | inconclusive: 2.08 µM [inhibitor, partial curve, poor fit]
20 | COCC(=O)Nc1c(I)c(C(=O)NC[C@@H](O)CO)c(I)c(C(=O)N(C)C[C@@H](O)CO)c1I | inactive
21 | Cc1ccc(NC(=O)COc2ccccc2C#N)cc1S(=O)(=O)N1CCCCCC1 | active: 8.28 µM
22 | Cc1ccccc1OCC1CN(CN2CCOCC2)C(=O)O1 (centres undefined) | inconclusive: 10.4 µM [inhibitor, single point]
23 | Cc1cccc(NC(=O)COc2ccc(Br)cc2/C=N/O)c1 | inconclusive: 18.5 µM [inhibitor, single point]
24 | CC1CCN(C(=O)CSc2nc3c(cnn3-c3ccccc3)c(=O)[nH]2)CC1 | inconclusive: 18.5 µM [inhibitor, single point]
25 | CCC(NS(=O)(=O)c1cccs1)c1ccc(C)cc1 (centres undefined) | inconclusive: 18.5 µM [inhibitor, single point]

Row | Structure (SMILES) | Potency
26 | Cc1occc1C(=O)NN1C(=O)C2C3CCC(O3)C2C1=O (centres undefined) | inactive
27 | Cc1cccc(NC(=O)Cc2nc(-c3c[nH]c(C(=O)N4CCCC4)c3)cs2)c1 | inconclusive: 1.85 µM [inhibitor, partial curve]
28 | COc1cccc(-c2cc(=O)c3cc(NC(C)=O)ccc3[nH]2)c1 | inactive
29 | CC(NCc1ccc(Cl)cc1)C(O)c1ccccc1 (centres undefined) | active: 3.7 µM
30 | Cc1ccc(NC(=S)Nc2c(C)n(C)n(-c3ccccc3)c2=O)cc1Cl | inconclusive: 18.5 µM [inhibitor, single point]
31 | COc1ccc(NC(=O)CSc2ccccc2)cc1S(=O)(=O)N1CCOCC1 | active: 11.7 µM
32 | CNC(=O)c1nnc(Cc2ccc(Cl)cc2)o1 | inconclusive: 18.5 µM [inhibitor, single point]
33 | CC(Sc1nnnn1-c1ccccc1)C(=O)Nc1ccccc1-c1ccccc1 (centres undefined) | active: 2.94 µM
34 | O=C(CN1CCN(S(=O)(=O)c2ccc(Cl)cc2)CC1)Nc1ccc2c(c1)OCO2 | inconclusive: 18.5 µM [inhibitor, single point]
35 | Cc1ccc(-c2csc3ncn(CC(=O)O)c(=O)c23)cc1C | inactive
36 | Cc1cccc2cc(CN(Cc3ccc(F)cc3)Cc3nnnn3C3CCCC3)c(=O)[nH]c12 | inactive
37 | O=C(CSC1=NS(=O)(=O)c2cc(Cl)ccc2N1)Nc1cccc(F)c1 | inactive
38 | N=C1SC(c2ccccc2)C(=O)N1c1ncc(Cc2ccccc2)s1 (centres undefined) | inconclusive: 2.94 µM [inhibitor, full curve, poor fit]
39 | O=C(N[C@@H](Cc1ccccc1)C(=O)NCCc1c[nH]c2ccccc12)c1ccco1 | inconclusive: 13.1 µM [inhibitor, partial curve, poor fit]
40 | CN1C[C@H](CO)C[C@@H]2c3cccc4[nH]cc(c34)C[C@H]21 | inactive
41 | Cc1ccc(-n2c(N)c(C(=O)Nc3c(C)n(C)n(-c4ccccc4)c3=O)c3nc4ccccc4nc32)cc1C | inconclusive: 2.94 µM [inhibitor, full curve, poor fit]
42 | CN(C)CCOC(=O)C1(c2ccccc2)CCOCC1 | inconclusive: 10.4 µM [inhibitor, single point]
43 | Cc1cccc(C)c1NC(=O)N1CCC(N2CCCCC2)CC1 | inconclusive: 4.15 µM [inhibitor, single point]
44 | Cc1ccc2oc(C(=O)NCc3ncc(C)[nH]3)c(C)c2c1 | inactive
45 | COc1ccc(Cl)cc1N/C(N)=N/c1nc(CSc2ccc(C)cc2)cc(=O)[nH]1 | inconclusive: 3.7 µM [inhibitor, partial curve, poor fit]
46 | O=C(Cn1ncc2c3ccccc3n(Cc3ccccc3F)c2c1=O)NCC1CCCO1 (centres undefined) | inactive
47 | Oc1ccc(/C=N/n2c(COc3ccccc3)n[nH]c2=S)cc1O | inconclusive: 9.28 µM [inhibitor, partial curve, poor fit]
48 | COc1ccc(S(=O)(=O)N2CCN(CC(=O)c3ccc(O)c(O)c3)CC2)cc1 | active: 14.7 µM
49 | Cc1ccc(C2CC(=O)c3cnc(NC(=O)c4ccco4)nc3C2)cc1 (centres undefined) | inconclusive: 1.17 µM [inhibitor, partial curve, poor fit]
50 | COc1cc(O)c(C(CCN2CCN(c3ccccc3)CC2)c2cc(OC)c(OC)c(OC)c2)c(OC)c1 (centres undefined) | active: 0.928 µM

In the list so far, these contain a thiophene ring, fused or not:
Row | Structure (SMILES) | Potency
14 | NC(=O)c1c(NC(=O)CN2CCCC2)sc2c1CCCC2 | active: 11.7 µM
18 | CC(C)n1c(N2CCN(C(=O)c3cccs3)CC2)nc2ccccc21 | inactive
25 | CCC(NS(=O)(=O)c1cccs1)c1ccc(C)cc1 (centres undefined) | inconclusive: 18.5 µM [inhibitor, single point]
35 | Cc1ccc(-c2csc3ncn(CC(=O)O)c(=O)c23)cc1C | inactive

Entries 43 to 44, quoted:
Row | Structure (SMILES) | Potency
43 | Cc1cccc(C)c1NC(=O)N1CCC(N2CCCCC2)CC1 | inconclusive: 4.15 µM [inhibitor, single point]
44 | Cc1ccc2oc(C(=O)NCc3ncc(C)[nH]3)c(C)c2c1 | inactive

Continuation.

Row | Structure (SMILES) | Potency
51 | COc1ccc(C(=O)N2CCC(C(=O)Nc3ccc(C)cc3)CC2)cc1 | inactive
52 | O=C(CN1C(=O)NC2(CCCc3ccccc32)C1=O)NCc1ccc(Cl)cc1Cl (centres undefined) | inactive
53 | C=CCC(C(=O)OC)(C(=O)OC)c1ccccc1[N+](=O)[O-] | inactive
54 | COc1ccc2c(c1)c(=O)oc1c(C)c(OCc3cc(C(=O)O)oc3C)ccc12 | inconclusive: 18.5 µM [inhibitor, single point]
55 | Cc1cc(C)cc(OCCNC(=O)CCc2ccccc2)c1 | inconclusive: 2.08 µM [inhibitor, single point]
56 | COc1ccc2cc3cc(C(=O)N(C)C4CCCCC4)oc3nc2c1 | inconclusive: 18.5 µM [inhibitor, single point]
57 | CCOC(=O)CN1C(=O)CN(c2ccc(C)c(C)c2)C1=O | inconclusive: 7.38 µM [inhibitor, partial curve, poor fit]
58 | CN(Cc1ccc(F)cc1)C(=O)c1ccc2c(c1)NC(=O)CS2 | inconclusive: 0.0023 µM [inhibitor, full curve, poor fit]
59 | COc1ccc2cc3cc(C(=O)NCCCN4CCC(C)CC4)oc3nc2c1 | inactive
60 | CCN(CC)CCCNC(=O)c1cc(-c2ccc(Cl)c(Cl)c2)on1 | inactive
61 | c1ccc(-n2cnc3cc(NCc4ccncc4)ccc32)cc1 | inconclusive: 18.5 µM [inhibitor, single point]
62 | Cc1cc(C=C2C(=O)c3ccccc3C2=O)c(C)n1-c1ccc(C(=O)O)cc1 | inactive
63 | CNC(=S)N1CCN=C1Nc1nc(C)cc(C)n1 | inconclusive: 0.465 µM [inhibitor, partial curve, poor fit]
64 | O=c1[nH]c(N/N=C\c2ccc3c(c2)OCO3)nc2ccccc12 | inactive
65 | CCNC(=S)Nc1cc(OC)c(NC(=O)c2ccco2)cc1OC | inactive
66 | CCNC(=O)CSc1nc2ccccc2c(=O)n1CCCOC(C)C | inconclusive: 18.5 µM [inhibitor, single point]
67 | Cc1ccc(C(=O)Cn2c(NCCO)nc3ccccc32)cc1 | inconclusive: 18.5 µM [inhibitor, single point]
68 | O=C(NCc1ccco1)c1cc2sccc2n1Cc1ccccc1 | active: 2.08 µM
69 | CSCC[C@H](NC(=O)OC(C)(C)C)C(=O)N/N=C/c1cc2ccc(C)cc2nc1Cl | inconclusive: 18.5 µM [inhibitor, single point]
70 | COc1ccc(N2Cc3ccccc3C2=NC(=O)c2ccc(C)cc2)cc1OC | inconclusive: 10.4 µM [inhibitor, single point]
71 | Cc1cccc(-n2c(-c3ccco3)nc3ccccc3c2=O)n1 | inconclusive: 8.28 µM [inhibitor, partial curve]
72 | O=C(CSc1n[nH]c(=O)n1-c1ccccc1)Nc1ccccc1C(F)(F)F | inconclusive: 11.7 µM [inhibitor, single point]
73 | COc1ccccc1N(C(=O)CCl)c1cn(C(C)=O)c2ccccc12 | inconclusive: 18.5 µM [inhibitor, single point]
74 | Cc1noc(C)c1COc1ccccc1C(=O)NCc1ccco1 | inconclusive: 18.5 µM [inhibitor, single point]
